Experimental data: patent US20260183295A1, “METHODS AND COMPOSITIONS FOR TREATING CANCER” (Onconova Therapeutics, Inc., priority 2022, published 2026)
At least one compound was matched to its structure with a doubt left.

How the values were obtained:
PyMT cells [1] = assay: Growth and recovery, 6 days treatment and 4 days recovery, cell counts; format: cell-based, mouse; settings: 6 days treatment, counted on days 0, 3, 6, 10
From the text: Following 6 days of treatment, the drug treatments were stopped and the cells allowed to recover for 4 days. Cell numbers were counted on days 0, 3, 6, and 10, and the results plotted.

BUB1 in MDA-MB-231 = assay: BUB1 levels after 72 hours treatment; format: cell-based; settings: MDA-MB-231 (TNBC)
Procedure: (§1) The effects on the different treatment conditions on BUB 1 levels and PARP cleavage were also assessed. For both MNA-MB-231 cells, Compound 1 alone or with HCQ or SBI decreased BUB1 levels and cleaved PARP with […] decreases in cell viability observed for all treatments except Compound 1+SBI in MMA-MB-231 cells. The effects of Compound 1 with or without autophagy inhibitors was less pronounced in HCC-1937 cells.

PyMT cells [2] = assay: Senescence-associated β-galactosidase staining, 48 hours; format: cell-based, mouse; settings: compared to DMSO
Procedure: Following 48 hours of treatment, cells were stained for the senescence marker β-galactosidase.

PARP in MDA-MB-468 = assay: PARP cleavage after 72 hours treatment; format: cell-based; settings: MDA-MB-468 (TNBC)
Procedure: as §1

PARP in MDA-MB-231 = assay: PARP cleavage after 72 hours treatment; format: cell-based; settings: MDA-MB-231 (TNBC)
Procedure: as §1

PARP in HCC-1937 = assay: PARP cleavage after 72 hours treatment; format: cell-based; settings: HCC-1937 (TNBC)
Procedure: as §1

MDA-MB-231 cells [3] = assay: CytoTox-Glo cytotoxicity assay with or without bafilomycin A1, 2 days; format: cell-based; settings: 5 μM
MDA-MB-231 cells [4] = assay: Annexin V/PI staining with or without bafilomycin A1, 2 days; format: cell-based; settings: 5 μM
From the text: The effect was increased with bafilomycin A1 cotreatment.

PyMT cells [5] = assay: MTT cell viability; format: cell-based, mouse; settings: 24, 48 and 72 hours; Compound 1 2.5, 5, 10 μM; Comparator 1 5 μM
pRb pSer807/811 = assay: Western blot after 2 h treatment, MDA-MB-231; format: cell-based; settings: 5 μM, relative to DMSO control
Procedure: Following treatment, a sample of each of the three treatments was analyzed by Western Blot for expression of phosphoprotein targets.

CXCL10 = assay: qPCR of T-cell recruiting chemokine mRNA, PyMT cells; format: cell-based, mouse; settings: 24, 48 and 72 hours
[6] = test system: MDA-MB-231 cell lysates and intact cells; assay: CETSA-MS profiling, lysates and intact cells; format: cell-based; settings: 2 μM and 20 μM (FIG. 4)
MDA-MB-231 cells [7] = assay: MTT assay, 24 hours; format: cell-based; settings: zVAD-FMK 20 μM (FIG. 25)
MDA-MB-231 cells [8] = assay: Annexin V/PI staining followed by FACS, 24 hours; format: cell-based
Procedure: To determine the effect of the different treatment conditions on cell death, Annexin V/PI staining was performed.

Structure (SMILES)	PyMT cell numbers, treatment and recovery phase (PyMT cells [1])	BUB1 (BUB1 in MDA-MB-231)	β-galactosidase staining (senescence) (PyMT cells [2])	PARP Cleavage (PARP in MDA-MB-468)	PARP Cleavage (PARP in MDA-MB-231)	PARP Cleavage (PARP in HCC-1937)	cell death (Cell Tox Glo), compound alone (MDA-MB-231 cells [3])	effect of bafilomycin A1 cotreatment on cell death (Cell Tox Glo) (MDA-MB-231 cells [3])	cell death (Annexin V/PI), compound alone (MDA-MB-231 cells [4])	effect of bafilomycin A1 cotreatment on cell death (Annexin V/PI) (MDA-MB-231 cells [4])	cell death (MTT cell viability) (PyMT cells [5])	phosphorylation of pRb at Ser807/811 (pRb pSer807/811)	CXCL10 mRNA levels (CXCL10)	effect on the targets identified in Tables 1-3 [6]	effect of zVAD-FMK on cell death, MTT assay (MDA-MB-231 cells [7])	cell death (Annexin V/PI) (MDA-MB-231 cells [8]; Compound 1, Comparator 1, 2 5 μM, Comparator 4 10 μM)	effect of zVAD-FMK on cell death, Annexin V/PI staining (MDA-MB-231 cells [8]; zVAD-FMK 20 μM (FIG. 24))
CCN1CCN(Cc2ccc(Nc3ncc(F)c(-c4cc(F)c5nc(C)n(C(C)C)c5c4)n3)nc2)CC1 [Comparator 3, abemaciclib]	increased cell proliferation	↓	no large effect	No	Yes	No	–	–	–	–	–	–	–	–	–	–	–
CC(=O)c1c(C)c2cnc(Nc3ccc(N4CCNCC4)cn3)nc2n(C2CCCC2)c1=O [Comparator 1, palbociclib]	cell proliferation	↓	no large effect	No	No	No	did not increase cell death	slightly increased	did not induce cell death	did not increase death	cell death at 48 and 72 hours that was less than cell death induced by Compound 1	decreased phosphorylation	higher than levels were following Compound 1 treatment	not found to affect	similarly unaffected	neither Comparator 1 nor Comparator 2 treatment induced cell death	similarly unaffected
